{
  "source": "the supplement of paper PMC11060735",
  "note": "“And” between values parts separate entries of the source, which are not always exact repeats. Identical values can stand only once. Counter-ions that a name gives are not always drawn. ± gives the standard deviation of the averaged measurements. In all, about 1,800 compounds were measured (“GFP- (p16Ink4a-) cell count relative to negative-control wells”: median about 0.99, lowest 2% from about 0.5 on). This is one part of the list.",
  "data": [
    {"test_system": "mouse p16Ink4a+/- lung fibroblasts (INKBRITE, bleomycin-injured)", "assay": "GFP- (p16Ink4a-) cell count relative to negative-control wells (fold of vehicle); higher = more p16Ink4a- cells surviving", "settings": "1 µM; 3 days", "values": [
      {"compound": "COc1cc2c(Nc3ccc(NC(=O)c4ccccc4)cc3)ncnc2cc1OCCCN1CCOCC1", "GFP-": "0.93618 ± 0.00011"},
      {"compound": "CN1CCN(c2c(F)cc3c(=O)c(C(=O)O)cn4c3c2OCN4C)CC1", "note": "[Marbofloxacin]", "GFP-": 1.07},
      {"compound": "O=C(Nc1ccncc1)c1cc([N+](=O)[O-])ccc1Cl", "GFP-": 1.1},
      {"compound": "NS(=O)(=O)c1cc2c(cc1Cl)NC=NS2(=O)=O", "note": "[Chlorothiazide]", "GFP-": 0.98},
      {"compound": "O=C(Nc1ccc2c(=O)cc(-c3nn[nH]n3)oc2c1)c1ccc(OCCCCc2ccccc2)cc1", "note": "[Pranlukast]", "GFP-": 0.993},
      {"compound": "NS(=O)(=O)c1cc(C(=O)O)c(NCc2ccco2)cc1Cl", "note": "[Furosemide]", "GFP-": 0.93},
      {"compound": "CNS(=O)(=O)Cc1ccc2[nH]cc(CCN(C)C)c2c1", "note": "[Sumatriptan]", "GFP-": 1.12},
      {"compound": "C#Cc1cccc(Nc2ncnc3cc(OC)c(OCCCCCCC(=O)NO)cc23)c1", "GFP-": "1.01 ± 0.091"},
      {"compound": "Cn1cc(-c2[nH]c3cc(NC(=O)[C@H](N)C4CCCCC4)cc4c3c2C=NNC4=O)cn1", "GFP-": 1.06},
      {"compound": "CCn1cc(-c2ccnc3[nH]c(-c4cccc(CN(C)C)c4)cc23)c(-c2ccc(NC(=O)N(C)C)cc2)n1", "GFP-": "0.658 ± 0.17"},
      {"compound": "COc1ccc(/C=C/C(=O)Nc2ccccc2C(=O)O)cc1OC", "note": "[Tranilast]", "GFP-": 0.875},
      {"compound": "CC(C)(C)c1cnc(CSc2cnc(NC(=O)C3CCNCC3)s2)o1", "GFP-": 1.05},
      {"compound": "CN(C)C(=O)c1cc2cnc(Nc3ccc(N4CCNCC4)cn3)nc2n1C1CCCC1", "note": "[Ribociclib]", "GFP-": 0.995},
      {"compound": "COc1cccc2c1C(=O)c1c(O)c3c(c(O)c1C2=O)C[C@@](O)(C(C)=O)C[C@@H]3O[C@H]1C[C@H](N)[C@H](O)[C@H](C)O1", "note": "[Daunorubicin]", "GFP-": 0.754},
      {"compound": "c1ccc(CNc2nc(NCc3ccccc3)c3ccccc3n2)cc1", "GFP-": 0.94},
      {"compound": "CC(C)NC[C@@H](C(=O)N1CCN(c2ncnc3c2[C@H](C)C[C@H]3O)CC1)c1ccc(Cl)cc1", "GFP-": 0.865},
      {"compound": "COc1ccc2cccc(CCNC(C)=O)c2c1", "note": "[Agomelatine]", "GFP-": 0.973},
      {"compound": "Cn1cc(-c2cnn3c(N)c(Br)c([C@@H]4CCCNC4)nc23)cn1", "GFP-": 0.988},
      {"compound": "O=C(NCCCNc1nc(Nc2cccc(NC(=O)N3CCCC3)c2)ncc1I)c1cccs1", "GFP-": 0.707},
      {"compound": "Cc1ncc([N+](=O)[O-])n1CC(O)CCl", "note": "(configuration not stated) [Ornidazole]", "GFP-": 1.14},
      {"compound": "Cc1cc([C@@H](C)Nc2ccccc2C(=O)O)c2nc(N3CCOCC3)cc(=O)n2c1", "GFP-": 0.724},
      {"compound": "OCCOCCN1CCN(C2=Nc3ccccc3Sc3ccccc32)CC1", "note": "[Quetiapine]", "GFP-": 0.855},
      {"compound": "Cc1cc(C#N)cc(C)c1Oc1nc(Nc2ccc(C#N)cc2)nc(N)c1Br", "note": "[Etravirine]", "GFP-": 1.15},
      {"compound": "COc1ccc2cc(-c3[nH]c(-c4ccc(S(C)=O)cc4)nc3-c3ccncc3)ccc2c1", "note": "(configuration not stated) [Tie2 kinase inhibitor]", "GFP-": 1.05},
      {"compound": "COc1cc2c(Oc3ccc(NC(=O)C4(C(=O)Nc5ccc(F)cc5)CC4)cc3F)ccnc2cc1OCCCN1CCOCC1", "note": "[Foretinib]", "GFP-": 0.62},
      {"compound": "CCOc1cc(N)c(Cl)cc1C(=O)NCC1CN(Cc2ccc(F)cc2)CCO1", "note": "(configuration not stated) [Mosapride, Mosapride Citrate]", "GFP-": 1.11},
      {"compound": "OC[C@@H](O)CN1CCN(c2ccccc2)CC1", "note": "[Levodropropizine]", "GFP-": 1.05},
      {"compound": "C[C@H](Cn1cnc2c(N)ncnc21)OCP(=O)(O)O", "note": "[Tenofovir]", "GFP-": 1.2},
      {"compound": "COc1ccc2c(c1)c(CC(=O)N1CCOCC1)c(C)n2C(=O)c1ccc(Cl)cc1", "GFP-": 1.15},
      {"compound": "O=C(CCCCCCNC(=O)c1cnc(N(c2ccccc2)c2ccccc2)nc1)NO", "note": "[Rocilinostat]", "GFP-": "0.75 ± 0.08"},
      {"compound": "COc1nc(C)cnc1NS(=O)(=O)c1cccnc1-c1ccc(-c2nnco2)cc1", "note": "[Zibotentan]", "GFP-": 1.19},
      {"compound": "COc1cc(N2CCC(N)CC2)ccc1Nc1ncc(Cl)c(-c2c[nH]c3ccccc23)n1", "GFP-": 0.795},
      {"compound": "CNC(=O)c1ccc(-c2cnc3ncc(Cc4ccc5ncccc5c4)n3n2)cc1F", "GFP-": 0.845},
      {"compound": "COc1cc(Cc2cnc(N)nc2N)cc(OC)c1OC", "note": "[Trimethoprim]", "GFP-": 1.04},
      {"compound": "COc1ccccc1OCCNCC(O)COc1cccc2[nH]c3ccccc3c12", "note": "(configuration not stated) [Carvedilol, Carvedilol Phosphate]", "GFP-": 0.96},
      {"compound": "O=C[C@H](O)[C@@H](O)[C@H](O)CO", "note": "[Xylose]", "GFP-": 0.97},
      {"compound": "Cc1ccccc1N1C(=O)c2cc(S(N)(=O)=O)c(Cl)cc2NC1C", "note": "(configuration not stated) [Metolazone]", "GFP-": 0.905},
      {"compound": "CC[C@@]1(O)C(=O)OCc2c1cc1n(c2=O)Cc2cc3c(CN(C)C)c(O)ccc3nc2-1", "note": "[Topotecan, Topotecan Hydrochloride]", "GFP-": 0.647},
      {"compound": "Nc1nc(O)c2ncn([C@@H]3O[C@H](CO)[C@@H](O)[C@H]3O)c2n1", "note": "[Guanosine]", "GFP-": 1.01},
      {"compound": "Cn1ccnc1S", "note": "[Methimazole]", "GFP-": 1.01},
      {"compound": "COc1ccc2[nH]c(S(=O)Cc3ncc(C)c(OC)c3C)nc2c1", "note": "(configuration not stated) [Esomeprazole; Omeprazole]", "GFP-": "1.03 and 1.31"},
      {"compound": "COc1ccc(C2CNC(=O)C2)cc1OC1CCCC1", "note": "(configuration not stated) [Rolipram]", "GFP-": 1.01},
      {"compound": "CC[C@@H]1C(=O)N(C)c2cnc(Nc3ccc(C(=O)NC4CCN(C)CC4)cc3OC)nc2N1C1CCCC1", "GFP-": 0.766},
      {"compound": "CC(=O)S[C@@H]1CC2=CC(=O)CC[C@]2(C)[C@H]2CC[C@@]3(C)[C@@H](CC[C@@]34CCC(=O)O4)[C@H]12", "note": "[Spironolactone]", "GFP-": 1.07},
      {"compound": "O=c1cc(-c2ccccc2)oc2cc(O)c(O)c(O)c12", "note": "[Baicalein]", "GFP-": 1.03},
      {"compound": "COc1cc2nc(N3CCN(C(=O)C4CCCO4)CC3)nc(N)c2cc1OC", "note": "(configuration not stated) [Terazosin]", "GFP-": 0.942},
      {"compound": "COc1cc2c(N3CCN(C(=O)Nc4ccc(OC(C)C)cc4)CC3)ncnc2cc1OCCCN1CCCCC1", "GFP-": 0.944},
      {"compound": "CS(=O)(=O)OCCCCOS(C)(=O)=O", "note": "[Busulfan]", "GFP-": 0.83},
      {"compound": "O=C(CS(=O)Cc1ccco1)NC/C=C\\COc1cc(CN2CCCCC2)ccn1", "note": "(configuration not stated) [Lafutidine]", "GFP-": 1.11},
      {"compound": "COc1ccc(C2=NC(c3ccc(Cl)cc3)C(c3ccc(Cl)cc3)N2C(=O)N2CCNC(=O)C2)c(OC(C)C)c1", "note": "(configuration not stated) [Nutlin-3]", "GFP-": 0.835},
      {"compound": "COc1cc(OC)c(C(=O)CCCN2CCCC2)c(OC)c1", "note": "[Buflomedil, Buflomedil Hydrochloride]", "GFP-": 1.18},
      {"compound": "C=C1CC[C@@H]2[C@](C)(CO)[C@H](O)CC[C@@]2(C)[C@@H]1C/C=C1/C(=O)OCC1O", "note": "(some centres not stated) [Andrographolide]", "GFP-": 1.05}
    ]}
  ]
}
